# The other results are listed elsewhere or left out. The data scatter; read single values as rough.
# Amino acid sequences for entries named in this document (tags omitted). A change or cut given only in a name is not applied to a line headed by its entry.
# UniProt Q15459: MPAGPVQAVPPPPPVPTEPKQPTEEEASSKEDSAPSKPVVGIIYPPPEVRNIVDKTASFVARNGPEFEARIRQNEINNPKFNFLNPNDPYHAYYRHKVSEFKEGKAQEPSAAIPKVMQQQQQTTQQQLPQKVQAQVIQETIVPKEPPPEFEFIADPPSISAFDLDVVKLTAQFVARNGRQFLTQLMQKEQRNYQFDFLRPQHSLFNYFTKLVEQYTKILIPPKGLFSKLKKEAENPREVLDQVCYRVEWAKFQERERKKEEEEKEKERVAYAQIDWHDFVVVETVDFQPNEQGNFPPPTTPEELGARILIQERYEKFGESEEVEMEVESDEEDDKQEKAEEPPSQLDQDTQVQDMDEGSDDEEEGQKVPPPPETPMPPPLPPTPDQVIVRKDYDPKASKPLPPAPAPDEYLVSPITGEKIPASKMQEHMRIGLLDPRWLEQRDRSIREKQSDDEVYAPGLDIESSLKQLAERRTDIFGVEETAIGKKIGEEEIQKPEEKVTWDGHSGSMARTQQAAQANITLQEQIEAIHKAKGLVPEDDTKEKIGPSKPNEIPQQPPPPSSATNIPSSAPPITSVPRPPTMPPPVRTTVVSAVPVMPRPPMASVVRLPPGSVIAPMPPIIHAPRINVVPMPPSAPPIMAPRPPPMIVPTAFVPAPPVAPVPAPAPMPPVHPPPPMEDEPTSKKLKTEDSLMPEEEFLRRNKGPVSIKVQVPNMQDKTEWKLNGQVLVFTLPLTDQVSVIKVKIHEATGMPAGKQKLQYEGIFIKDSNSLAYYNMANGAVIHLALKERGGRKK
# UniProt Q9Y512: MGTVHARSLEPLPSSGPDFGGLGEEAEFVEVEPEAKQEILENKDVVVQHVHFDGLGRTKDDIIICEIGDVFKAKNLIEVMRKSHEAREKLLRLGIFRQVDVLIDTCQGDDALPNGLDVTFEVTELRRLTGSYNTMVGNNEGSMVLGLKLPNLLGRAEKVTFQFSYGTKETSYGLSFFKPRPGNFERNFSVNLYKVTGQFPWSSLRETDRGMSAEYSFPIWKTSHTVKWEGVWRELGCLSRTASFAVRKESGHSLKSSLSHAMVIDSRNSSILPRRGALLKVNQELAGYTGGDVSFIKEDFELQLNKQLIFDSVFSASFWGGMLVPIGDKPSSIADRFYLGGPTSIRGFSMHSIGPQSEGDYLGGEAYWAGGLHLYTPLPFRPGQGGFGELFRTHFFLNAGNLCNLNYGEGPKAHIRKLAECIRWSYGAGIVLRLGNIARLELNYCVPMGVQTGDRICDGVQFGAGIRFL
# UniProt Q7Z333: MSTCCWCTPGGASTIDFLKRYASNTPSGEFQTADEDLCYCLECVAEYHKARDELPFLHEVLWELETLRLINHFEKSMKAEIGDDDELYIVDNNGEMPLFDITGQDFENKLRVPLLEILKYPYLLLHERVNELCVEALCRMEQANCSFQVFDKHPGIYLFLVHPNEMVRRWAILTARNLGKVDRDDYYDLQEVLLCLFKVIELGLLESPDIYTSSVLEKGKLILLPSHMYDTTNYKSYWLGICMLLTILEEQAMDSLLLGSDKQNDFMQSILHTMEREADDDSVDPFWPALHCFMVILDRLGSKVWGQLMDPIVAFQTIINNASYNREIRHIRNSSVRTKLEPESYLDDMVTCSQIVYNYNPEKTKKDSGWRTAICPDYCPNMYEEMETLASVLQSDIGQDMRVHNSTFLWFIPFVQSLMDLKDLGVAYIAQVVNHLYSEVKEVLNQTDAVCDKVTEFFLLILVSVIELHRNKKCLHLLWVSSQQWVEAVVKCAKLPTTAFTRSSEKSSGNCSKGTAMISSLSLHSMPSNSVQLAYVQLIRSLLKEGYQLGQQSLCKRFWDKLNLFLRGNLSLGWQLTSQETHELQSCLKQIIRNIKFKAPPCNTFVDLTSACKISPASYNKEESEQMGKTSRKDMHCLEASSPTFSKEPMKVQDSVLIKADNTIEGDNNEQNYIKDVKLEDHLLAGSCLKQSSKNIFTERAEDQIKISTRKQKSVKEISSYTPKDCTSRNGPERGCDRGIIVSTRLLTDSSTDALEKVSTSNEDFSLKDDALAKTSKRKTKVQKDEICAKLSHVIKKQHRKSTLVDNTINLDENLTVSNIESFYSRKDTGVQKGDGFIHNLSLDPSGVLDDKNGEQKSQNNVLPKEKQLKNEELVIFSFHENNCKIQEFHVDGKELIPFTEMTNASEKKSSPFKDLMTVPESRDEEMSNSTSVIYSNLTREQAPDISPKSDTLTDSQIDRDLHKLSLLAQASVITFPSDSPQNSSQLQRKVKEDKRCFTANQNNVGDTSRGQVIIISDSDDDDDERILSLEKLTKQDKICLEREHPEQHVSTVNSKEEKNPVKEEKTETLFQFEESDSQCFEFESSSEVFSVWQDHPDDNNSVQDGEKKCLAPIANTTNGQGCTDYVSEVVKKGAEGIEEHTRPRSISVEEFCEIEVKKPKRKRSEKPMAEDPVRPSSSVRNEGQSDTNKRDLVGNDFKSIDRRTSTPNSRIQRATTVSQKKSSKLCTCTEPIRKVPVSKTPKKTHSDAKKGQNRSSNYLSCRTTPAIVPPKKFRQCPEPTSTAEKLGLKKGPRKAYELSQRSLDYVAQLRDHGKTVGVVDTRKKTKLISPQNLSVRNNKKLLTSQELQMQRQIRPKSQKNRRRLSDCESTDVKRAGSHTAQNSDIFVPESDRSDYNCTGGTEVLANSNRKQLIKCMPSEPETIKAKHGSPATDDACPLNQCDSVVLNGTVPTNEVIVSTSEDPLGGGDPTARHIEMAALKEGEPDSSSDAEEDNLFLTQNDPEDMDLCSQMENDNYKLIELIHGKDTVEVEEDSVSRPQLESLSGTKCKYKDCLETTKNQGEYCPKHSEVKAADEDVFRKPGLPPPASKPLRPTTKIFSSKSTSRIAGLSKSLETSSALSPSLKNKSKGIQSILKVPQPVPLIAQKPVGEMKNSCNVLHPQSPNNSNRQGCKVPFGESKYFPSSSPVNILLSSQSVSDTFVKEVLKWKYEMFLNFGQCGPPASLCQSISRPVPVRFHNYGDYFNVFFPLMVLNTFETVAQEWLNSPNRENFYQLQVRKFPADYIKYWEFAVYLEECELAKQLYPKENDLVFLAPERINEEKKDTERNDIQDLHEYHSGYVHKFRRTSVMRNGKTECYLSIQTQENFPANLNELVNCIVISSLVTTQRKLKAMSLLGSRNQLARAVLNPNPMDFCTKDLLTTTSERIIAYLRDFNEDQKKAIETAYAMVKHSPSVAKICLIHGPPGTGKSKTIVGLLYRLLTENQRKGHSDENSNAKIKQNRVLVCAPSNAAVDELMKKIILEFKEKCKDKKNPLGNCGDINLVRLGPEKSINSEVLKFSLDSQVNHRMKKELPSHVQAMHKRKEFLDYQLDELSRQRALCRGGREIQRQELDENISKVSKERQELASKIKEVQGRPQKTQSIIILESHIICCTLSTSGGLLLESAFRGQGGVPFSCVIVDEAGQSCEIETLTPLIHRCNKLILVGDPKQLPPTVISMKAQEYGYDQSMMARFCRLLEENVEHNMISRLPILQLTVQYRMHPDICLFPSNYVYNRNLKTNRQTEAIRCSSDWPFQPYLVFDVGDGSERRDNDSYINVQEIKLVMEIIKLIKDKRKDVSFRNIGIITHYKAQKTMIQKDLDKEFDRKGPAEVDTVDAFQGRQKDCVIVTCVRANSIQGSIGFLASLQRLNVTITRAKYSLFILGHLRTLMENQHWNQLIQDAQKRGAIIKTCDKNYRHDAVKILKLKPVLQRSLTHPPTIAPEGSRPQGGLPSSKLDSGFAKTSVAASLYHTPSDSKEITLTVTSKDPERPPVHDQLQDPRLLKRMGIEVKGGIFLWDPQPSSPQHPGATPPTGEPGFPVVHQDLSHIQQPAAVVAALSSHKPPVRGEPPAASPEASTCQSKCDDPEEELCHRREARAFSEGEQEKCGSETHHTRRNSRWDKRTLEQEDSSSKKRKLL
# UniProt Q8TBC3: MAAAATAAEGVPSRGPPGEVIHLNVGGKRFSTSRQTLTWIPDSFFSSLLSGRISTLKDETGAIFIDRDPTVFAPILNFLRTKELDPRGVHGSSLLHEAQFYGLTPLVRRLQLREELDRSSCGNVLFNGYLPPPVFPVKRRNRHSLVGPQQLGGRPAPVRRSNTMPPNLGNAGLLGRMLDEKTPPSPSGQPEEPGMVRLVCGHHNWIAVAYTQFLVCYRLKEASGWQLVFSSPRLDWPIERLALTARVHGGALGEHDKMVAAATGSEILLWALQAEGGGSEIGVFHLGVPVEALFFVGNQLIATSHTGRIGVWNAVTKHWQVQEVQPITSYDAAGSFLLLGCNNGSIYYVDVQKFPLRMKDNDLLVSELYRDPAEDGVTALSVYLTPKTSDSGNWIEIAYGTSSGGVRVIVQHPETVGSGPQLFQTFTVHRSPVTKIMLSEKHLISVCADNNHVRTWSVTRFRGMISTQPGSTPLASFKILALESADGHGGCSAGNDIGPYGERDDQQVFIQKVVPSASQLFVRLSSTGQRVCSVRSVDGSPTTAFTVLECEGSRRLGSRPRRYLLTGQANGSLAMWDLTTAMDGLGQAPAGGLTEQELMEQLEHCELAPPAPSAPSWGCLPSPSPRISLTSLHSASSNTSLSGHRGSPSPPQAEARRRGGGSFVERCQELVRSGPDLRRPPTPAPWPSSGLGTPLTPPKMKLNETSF
# UniProt Q9Y3L3: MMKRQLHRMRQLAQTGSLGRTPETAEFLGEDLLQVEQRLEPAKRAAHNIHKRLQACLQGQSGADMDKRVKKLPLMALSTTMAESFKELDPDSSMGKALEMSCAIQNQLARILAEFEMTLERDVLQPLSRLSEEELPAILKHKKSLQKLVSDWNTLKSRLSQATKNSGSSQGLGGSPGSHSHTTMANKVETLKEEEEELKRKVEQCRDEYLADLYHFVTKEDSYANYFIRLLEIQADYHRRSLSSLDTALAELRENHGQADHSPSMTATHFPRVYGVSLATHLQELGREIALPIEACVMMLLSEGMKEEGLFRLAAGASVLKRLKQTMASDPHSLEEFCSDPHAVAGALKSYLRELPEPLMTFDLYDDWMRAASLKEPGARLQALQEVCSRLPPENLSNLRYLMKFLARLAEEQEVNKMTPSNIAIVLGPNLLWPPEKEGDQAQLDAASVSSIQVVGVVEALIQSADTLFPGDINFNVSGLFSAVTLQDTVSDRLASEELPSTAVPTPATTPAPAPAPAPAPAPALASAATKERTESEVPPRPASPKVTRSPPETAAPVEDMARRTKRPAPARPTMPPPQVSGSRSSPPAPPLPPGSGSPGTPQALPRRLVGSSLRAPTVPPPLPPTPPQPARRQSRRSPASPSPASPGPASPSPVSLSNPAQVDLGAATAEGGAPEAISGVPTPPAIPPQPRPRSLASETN
# UniProt Q9H0K1: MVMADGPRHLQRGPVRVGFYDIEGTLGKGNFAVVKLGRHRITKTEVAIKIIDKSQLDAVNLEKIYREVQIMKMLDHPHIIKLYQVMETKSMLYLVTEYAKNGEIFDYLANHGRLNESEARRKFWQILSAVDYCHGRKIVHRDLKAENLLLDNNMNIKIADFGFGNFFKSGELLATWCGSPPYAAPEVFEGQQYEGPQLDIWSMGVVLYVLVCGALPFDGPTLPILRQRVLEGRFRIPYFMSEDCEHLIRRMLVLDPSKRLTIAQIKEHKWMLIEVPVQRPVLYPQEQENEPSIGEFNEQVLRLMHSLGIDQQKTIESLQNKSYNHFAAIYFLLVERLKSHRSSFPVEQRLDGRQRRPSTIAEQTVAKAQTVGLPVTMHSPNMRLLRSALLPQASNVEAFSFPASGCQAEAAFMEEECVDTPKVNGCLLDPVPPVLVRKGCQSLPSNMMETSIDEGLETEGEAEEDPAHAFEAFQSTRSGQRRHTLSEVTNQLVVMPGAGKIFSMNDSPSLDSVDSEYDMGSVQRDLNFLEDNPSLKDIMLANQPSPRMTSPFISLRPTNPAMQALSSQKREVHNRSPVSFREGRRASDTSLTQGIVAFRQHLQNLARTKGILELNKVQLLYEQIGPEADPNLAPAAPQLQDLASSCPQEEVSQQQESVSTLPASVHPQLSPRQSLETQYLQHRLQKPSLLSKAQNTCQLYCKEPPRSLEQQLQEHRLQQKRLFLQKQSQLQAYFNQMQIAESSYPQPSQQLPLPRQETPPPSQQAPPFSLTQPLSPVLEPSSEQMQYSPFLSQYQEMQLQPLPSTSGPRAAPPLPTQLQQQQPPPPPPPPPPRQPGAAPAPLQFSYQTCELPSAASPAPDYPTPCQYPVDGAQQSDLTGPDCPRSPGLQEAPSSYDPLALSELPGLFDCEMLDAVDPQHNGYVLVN
# UniProt O43765: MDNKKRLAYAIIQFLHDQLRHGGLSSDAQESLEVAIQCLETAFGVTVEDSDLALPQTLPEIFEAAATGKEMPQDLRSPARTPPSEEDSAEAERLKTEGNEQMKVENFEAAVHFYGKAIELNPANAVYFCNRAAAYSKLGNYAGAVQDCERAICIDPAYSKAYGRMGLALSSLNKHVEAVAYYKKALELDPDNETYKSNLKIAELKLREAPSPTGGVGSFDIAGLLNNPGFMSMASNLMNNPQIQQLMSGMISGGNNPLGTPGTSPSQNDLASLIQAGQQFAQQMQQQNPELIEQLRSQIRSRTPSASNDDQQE
# Experiments:
# [1] = compound: ClCC(=O)N[C@@H]1CCCc2ccccc12; assay: log2 mean competition ratio of IA-DTB cysteine labelling (DMSO/compound) (log2 ratio); higher = stronger cysteine engagement by compound; settings: treatment time: 4 h, cell line lysate: HEK293T
# Protocol: (§1)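 IA-DTB competitive cysteine chemoproteomics in HEK293T RIPA lysate. Lysates were treated with compound 29 or 30 at 50 or 200 µM for 4 h, then IA-DTB (500 µM, 1 h), trypsin-digested, NeutrAvidin-enriched and analysed by diaPASEF. Competition ratio = intensity DMSO / intensity compound (n=4 treated, n=64 DMSO); binding: mean log2 CR ≥ 1 and p ≤ 0.05 plus QC filters. Target is the cysteine site.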
# [2] = compound: ClCC(=O)N[C@H]1CCCc2ccccc12; assay: as above; settings: treatment time: 4 h, cell line lysate: HEK293T
# Protocol: as §1
Target,log2 mean competition ratio ([1]; 50 µM),log2 mean competition ratio ([1]; 200 µM),log2 mean competition ratio ([2]; 50 µM),log2 mean competition ratio ([2]; 200 µM)
SETD5 C1050,-0.0299,-0.0901,,
SF3A1 C244 (UniProt Q15459),-0.0499,-0.26,,
SESTD1 C482 (UniProt Q86VW0),-0.258,-0.0996,,
SAP30BP C127 (UniProt Q9UHR5),0.128,0.28,,
SAMM50 C65 (UniProt Q9Y512),-0.264,0.0573,,
SAMM50 C457 (UniProt Q9Y512),0.31,-0.0574,,
SASS6 C94 (UniProt Q6UVJ0),-0.201,-0.103,,
SINHCAF C41 (UniProt Q9NP50),0.166,0.19,,
SETD6 C166 (UniProt Q8TBK2),0.00486,-0.15,,
SARM1 C117 (UniProt Q6SZW1),0.0968,-0.191,,
SCAPER C71 (UniProt Q9BY12),-0.362,0.101,,
SERINC1 C72 (UniProt Q9NRX5),0.0343,-0.15,,
SEMA4D C783 (UniProt Q92854),-0.0598,0.0202,,
SEC23A C180 (UniProt Q15436),-0.0936,0.0439,,
SGPP1 C76 (UniProt Q9BX95),0.152,-0.418,,
SASH1 C1120 (UniProt O94885),0.159,0.0446,,
SCLY C316 (UniProt Q96I15),-0.04,0.00268,,
SH3GL1 C96 (UniProt Q99961),0.308,0.304,,
SHB C115 (UniProt Q15464),0.158,-0.0631,,
SETX C2006 (UniProt Q7Z333),0.336,-0.287,,
SEC62 C82 (UniProt Q99442),-0.28,-0.108,,
SIPA1L3 C1775,0.218,0.31,,
SHKBP1 C550 (UniProt Q8TBC3),0.638,,,
SENP5 C77 (UniProt Q96HI0),-0.124,0.372,,
SEC61B C39 (UniProt P60468),0.0412,0.0734,,

Target,log2 mean competition ratio ([1]; 50 µM),log2 mean competition ratio ([1]; 200 µM),log2 mean competition ratio ([2]; 50 µM),log2 mean competition ratio ([2]; 200 µM)
SIK3 C655,-0.344,0.283,,
SENP6 C833 (UniProt Q9GZR1),0.0899,0.245,,
SH3BP1 C388 (UniProt Q9Y3L3),-0.282,0.0863,,
SETD1B C1007 (UniProt Q9UPS6),-0.175,0.0238,,
SIPA1L3 C438,-0.114,-0.00118,,
SEC31A C704,0.0791,-0.0231,,
SBNO1 C626 (UniProt A3KN83),0.113,0.000689,,
SBF1 C570 (UniProt O95248),-0.106,-0.268,,
SH3BP4 C415 (UniProt Q9P0V3),0.066,0.16,,
SFXN4 C70 (UniProt Q6P4A7),-0.554,0.101,,
SEC63 C295 (UniProt Q9UGP8),0.276,0.844,,
SHMT2 C412,-0.0321,0.0386,,
SART1 C674 (UniProt O43290),-0.0658,-0.184,,
SCD5 C14 (UniProt Q86SK9),-0.0481,0.137,,
SBF1 C896 (UniProt O95248),-0.135,-0.0702,-0.416,-0.0468
SF3B1 C1244 (UniProt O75533),0.1,-0.313,,
SELENOO C241 (UniProt Q9BVL4),0.0708,-0.437,,
SH3D19 C718 (UniProt Q5HYK7),0.0203,-0.089,,
SEC23A C61 (UniProt Q15436),-0.107,0.467,,
SEL1L C539 (UniProt Q9UBV2),0.306,-0.111,,-0.0118
SEH1L C49 (UniProt Q96EE3),-0.0645,0.198,,-0.198
SH3PXD2B C783 (UniProt A1X283),0.21,0.333,,
SENP3 C243 (UniProt Q9H4L4),-0.36,0.317,,
SIK2 C426 (UniProt Q9H0K1),-0.349,-0.276,,
SCRN2 C277 (UniProt Q96FV2),0.182,-0.125,,

# A different layout for part of the listing above.
Target	log2 mean competition ratio ([1]; 50 µM)	log2 mean competition ratio ([1]; 200 µM)	log2 mean competition ratio ([2]; 50 µM)	log2 mean competition ratio ([2]; 200 µM)
SETX C2006 (UniProt Q7Z333)	0.336	-0.287		
SHKBP1 C550 (UniProt Q8TBC3)	0.638			
SENP5 C77 (UniProt Q96HI0)	-0.124	0.372		

# (continued)

Target,log2 mean competition ratio ([1]; 50 µM),log2 mean competition ratio ([1]; 200 µM),log2 mean competition ratio ([2]; 50 µM),log2 mean competition ratio ([2]; 200 µM)
SAFB2 C672,-0.168,0.0756,0.0784,0.0977
SBF2 C525 (UniProt Q86WG5),-0.084,-0.342,,-0.153
SHMT2 C80,0.355,0.52,,
SGO2 C582 (UniProt Q562F6),-0.501,0.291,,
SIPA1L3 C620,-0.152,0.108,-0.383,
SIN3B C249 (UniProt O75182),0.399,0.044,,
SIRT7 C282,0.2,-0.0249,,-0.00213
SH3PXD2B C102 (UniProt A1X283),0.195,0.152,0.407,-0.0454
SEMA6A C787,-0.0907,-0.0709,,
SHMT1 C68,0.175,-0.0465,-0.134,-0.166
SGTA C129 (UniProt O43765),0.0636,-0.0591,,
SETD2 C2532 (UniProt Q9BYW2),-0.0311,0.149,0.18,0.437
SH3PXD2A C832 (UniProt Q5TCZ1),-0.337,-0.488,,
SF1 C171,-0.252,0.293,,
SARM1 C649 (UniProt Q6SZW1),0.434,0.175,,0.21
SCARF2 C350,0.105,0.0275,,
SAMM50 C237 (UniProt Q9Y512),-0.0685,-0.112,,
SCFD1 C485 (UniProt Q8WVM8),0.19,0.149,-0.113,0.17
SHC1 C416 (UniProt P29353),0.000633,-0.161,,
SHTN1 C442 (UniProt A0MZ66),0.227,-0.0683,-0.138,0.0856
SH2B1 C587 (UniProt Q9NRF2),-0.101,0.498,,
SHPRH C688 (UniProt Q149N8),0.0883,-0.251,,
SANBR C478,0.349,0.253,,
SETX C1368 (UniProt Q7Z333),-0.011,0.212,0.0137,-0.102

# Reference: the supplement of paper PMC11732987, “Enantioselective OTUD7B fragment discovery through chemoproteomics screening and high-throughput optimisation” (Communications Chemistry, 2025)
